No constants are given. Whether binding was seen depends on the method and setting. Some binding calls cover weakened binding; strength is not graded here. Where no end group is shown, it is not given here.
T1: PEM peptide (human)
T1 peptide: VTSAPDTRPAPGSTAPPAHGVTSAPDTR

The chains behind the UniProt entries cited, without tags or fusion partners.
UniProt Q04609: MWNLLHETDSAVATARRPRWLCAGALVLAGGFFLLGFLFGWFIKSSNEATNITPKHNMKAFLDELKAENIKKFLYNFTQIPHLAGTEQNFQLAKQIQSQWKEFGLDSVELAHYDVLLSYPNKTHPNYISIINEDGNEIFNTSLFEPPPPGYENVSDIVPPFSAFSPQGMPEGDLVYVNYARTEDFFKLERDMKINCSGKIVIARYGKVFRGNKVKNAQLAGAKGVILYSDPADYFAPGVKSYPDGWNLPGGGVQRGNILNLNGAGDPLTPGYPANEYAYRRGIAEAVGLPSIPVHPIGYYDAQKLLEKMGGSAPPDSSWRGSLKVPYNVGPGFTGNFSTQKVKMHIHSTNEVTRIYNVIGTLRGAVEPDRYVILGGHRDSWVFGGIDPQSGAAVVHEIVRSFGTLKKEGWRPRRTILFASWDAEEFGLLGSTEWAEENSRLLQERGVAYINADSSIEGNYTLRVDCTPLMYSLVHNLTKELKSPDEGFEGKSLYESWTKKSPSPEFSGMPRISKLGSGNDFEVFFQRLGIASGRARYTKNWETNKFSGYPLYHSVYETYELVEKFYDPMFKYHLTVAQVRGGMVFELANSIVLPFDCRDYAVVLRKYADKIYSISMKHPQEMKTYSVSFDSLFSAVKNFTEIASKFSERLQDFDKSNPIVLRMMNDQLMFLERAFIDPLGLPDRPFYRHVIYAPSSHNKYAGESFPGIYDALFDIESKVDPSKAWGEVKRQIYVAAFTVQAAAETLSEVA


Experiments:
PEM peptide [1] = target: T1, PEM peptide; test: phage ELISA on PEM
PEM peptide [2] = target: T1, PEM peptide; test: phage panning on PEM peptide, R26 library, acid eluted
Experimental: A peptide comprising this sequence was synthesized and used to isolate abtides from TSAR peptide libraries by methods analogous to those described above. In these experiments, the specific TSAR libraries used were R26, D38 and DC43. See FIGS. 10-12 for description of these libraries. Phage bound to PEM were eluted by either standard acid elution methods, stringent acid elution methods where phage were incubated with the PEM peptide for only 10 minutes prior to washing and elution, or were eluted using excess PEM peptide. Phage from each library were isolated that express peptides capable of binding to PEM.

[3] = target: native 7E11-C5 antigen in LNCaP lysates (Homo sapiens, UniProt Q04609); test: sandwich assay, abtide coated, LNCaP lysate captured, biotinylated 7E11-C5 as detector

binding (PEM peptide [1])	Binder	further results
binds	GPQGSEHQCCSGHWGLKFPGCGNGPICNNFTALRGASRKNGP [E62]	
	SASLWDALGGWTTSAVPSYPRPHQTPGR [A5]	binding (PEM peptide [2]): binds
	GIINANDPLPFWFMSPYTPGPAPIDINASRALVSNESG (tested afterwards as synthetic 38-residue peptide (dot blot, ELISA, sandwich assay)) [7E11-C5 abtide clone 14]	binding [3]: binds
binds	GPLLPGEAAVHGARGLMRSGCGNGPTWNRLTAACRDSRNKGP [E44]	
